According to patent US20240036032A1, “PREDICTIVE IN VITRO ASSAY MIMICKING IN VIVO PHARMACOLOGY” (MIMI-Q GMBH, priority 2020, published 2024):
The name of at least one read-out is uncertain.

Test system: colon cancer organoids
Assay: Half growth inhibitory concentration (GI50): serial dilutions, 72 hours, MTS assay
Assay type: cell-based, human (patient)
Settings: bolus injection at 400 mg/m^2 dose [18]
Protocol: A patient was diagnosed with colon cancer and mFOLFOX6 chemotherapeutic treatment was prescribed. To obtain primary organoid culture of colon cancer cells a sample of resected lung metastasis was used. Tissue was cut into small fragments and placed immediately into MACS tissue storage solution (Miltenyi Biotec, Germany) and stored for no more than 24 hours at 4° C. Then, the tissue fragments were transferred to a tube for tissue homogenization gentleMACS C Tube (Miltenyi Biotec, Germany) and enzyme cocktail from Tumor Dissociation Kit human (Miltenyi Biotec, Germany) consisting of 2.2 ml of DMEM/F-12 culture medium (Thermo Fisher Scientific, USA), 100 μl of Enzyme H solution (Miltenyi Biotec, Germany), 50 μl of Enzyme R solution (Miltenyi Biotec, Germany) and 12.5 μl of Enzyme A solution (Miltenyi Biotec, Germany) was added to the same tube. Then the tube was tightly closed with a lid and placed in gentleMACS Octo Dissociator (Miltenyi Biotec, Germany). For tissue dissociation, the “37C_h_TDK_3” program was used. […]
Organoids were diluted in Matrigel Growth Factor Reduced (GFR) Basement Membrane Matrix (Corning, USA) and seeded into 96-well plate (TPP, Switzerland). […] Relative number of cells was measured with MTS assay CellTiter 96 Aqueous One Solution Cell Proliferation Assay kit (Promega, USA) according to the manufacturer's instructions (FIG. 2). […]

For `O=c1[nH]cc(F)c(=O)[nH]1` [5-Fluorouracil, 5-fluorouracil], the “GI50 lower than maximum concentration observed after bolus injection” value was over 150 ×.
